# Cleaved PARP after 72 h of treatment

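Human melanoma cell lines in 1,536-well plates were treated with two drugs together for 72 h, then fixed, stained and imaged. The read-out is the fraction of cleaved-PARP-positive nuclei, in % of that fraction in the DMSO control; 200 means twice the control level of this apoptosis marker. Concentrations were fixed for each drug; these are the higher of two levels. These are primary screening values without error estimates. Basal and induced levels differ widely between cell lines.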
An unselected part of the screen is shown.

Drugs:
stibogluconate (10 µM): O=C(O)[C@@H]1[O][Sb](=[O])([O][Sb]2(=[O])[O][C@H]([C@H](O)CO)[C@H](O)[C@H](C(=O)O)[O]2)[O][C@H]([C@H](O)CO)[C@@H]1O (some centres unmarked)
BMS-536924 (1 µM): Cc1cc(N2CCOCC2)cc2[nH]c(-c3c(NC[C@@H](O)c4cccc(Cl)c4)cc[nH]c3=O)nc12
OSU-03012 (5 µM): NCC(=O)Nc1ccc(-n2nc(C(F)(F)F)cc2-c2ccc3c(ccc4ccccc43)c2)cc1
XAV939 (10 µM): Oc1nc(-c2ccc(C(F)(F)F)cc2)nc2c1CSCC2
lestaurtinib (0.02 µM): C[C@]12O[C@H](C[C@]1(O)CO)n1c3ccccc3c3c4c(c5c6ccccc6n2c5c31)CNC4=O
SU6656 (2 µM): CN(C)S(=O)(=O)c1ccc2c(c1)/C(=C/c1cc3c([nH]1)CCCC3)C(=O)N2
gemcitabine (0.002 µM): Nc1ccn([C@@H]2O[C@H](CO)[C@@H](O)C2(F)F)c(=O)n1
veliparib (7 µM): C[C@]1(c2nc3c(C(N)=O)cccc3[nH]2)CCCN1

Pair	LOX IMVI	RVH-421	MeWo	C32
stibogluconate + XAV939	94.3	118	34.2	92.7
lestaurtinib + XAV939	82.5	85.3	127	89.7
XAV939 + veliparib	17.4	115	107	103
gemcitabine + BMS-536924	55.5	49.0	259	63.9
BMS-536924 + lestaurtinib	29.3	120	116	251
SU6656 + BMS-536924	163	91.0	186	790
OSU-03012 + BMS-536924	152	123	111	111
veliparib + OSU-03012	56.4	43.5	89.4	113
gemcitabine + SU6656	100	266	314	255
veliparib + stibogluconate	160	256	48.3	108
veliparib + SU6656	31.2	145	66.6	490
BMS-536924 + stibogluconate	51.1	515	48.0	118
gemcitabine + OSU-03012	81.5	623	203	52.0
SU6656 + OSU-03012	205	188	117	260
SU6656 + lestaurtinib	212	124	93.0	76.0
BMS-536924 + veliparib	116	188	107	146
stibogluconate + SU6656	455	62.0	327	258
XAV939 + gemcitabine	121	85.9	285	108
lestaurtinib + veliparib	144	281	150	37.3
lestaurtinib + stibogluconate	277	117	100	35.1
gemcitabine + lestaurtinib	53.8	439	915	87.7
XAV939 + SU6656	79.5	71.1	48.8	96.1
gemcitabine + veliparib	185	52.7	221	127
stibogluconate + gemcitabine	107	394	416	748
stibogluconate + OSU-03012	152	48.4	91.1	106
BMS-536924 + XAV939	141	189	68.6	89.1

Some entries from above, unchanged:

| Pair | LOX IMVI | RVH-421 | MeWo | C32 |
|---|---|---|---|---|
| gemcitabine + lestaurtinib | 53.8 | 439 | 915 | 87.7 |
| veliparib + OSU-03012 | 56.4 | 43.5 | 89.4 | 113 |

Source: doi:10.1371/journal.pone.0140310, primary screening data, rounded.